Experimental data: publication PMC4105463
Results are given in words; binding and its absence hold for the method and conditions named. In cells and extracts the contact can be indirect. Sequences can lack the tags named with a protein.

Target: T1, stefin B wild type (C3E31) fused to a half of the yellow fluorescent protein (human) (UniProt P04080)
T1 sequence: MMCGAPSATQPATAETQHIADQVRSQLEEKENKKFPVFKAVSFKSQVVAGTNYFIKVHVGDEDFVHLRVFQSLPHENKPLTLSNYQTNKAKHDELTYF
Experiment: split reporter; split YFP halves (NYFP, CYFP) on the C-terminus of each protein, co-transfected in HEK293 cells, live adherent cells imaged by confocal microscopy (488 nm)

binding: no binding
Substance: SUMO protein fused to the C-terminal half of the yellow fluorescent protein
